No constants are given. Whether binding was seen depends on the method and setting. Some entries that bind do so weakly or less than the wild type.

This assay addresses T1, LGR7 (leucine-rich repeat-containing GPCR 7) (human) (UniProt Q9HBX9).
T1 sequence (looked up): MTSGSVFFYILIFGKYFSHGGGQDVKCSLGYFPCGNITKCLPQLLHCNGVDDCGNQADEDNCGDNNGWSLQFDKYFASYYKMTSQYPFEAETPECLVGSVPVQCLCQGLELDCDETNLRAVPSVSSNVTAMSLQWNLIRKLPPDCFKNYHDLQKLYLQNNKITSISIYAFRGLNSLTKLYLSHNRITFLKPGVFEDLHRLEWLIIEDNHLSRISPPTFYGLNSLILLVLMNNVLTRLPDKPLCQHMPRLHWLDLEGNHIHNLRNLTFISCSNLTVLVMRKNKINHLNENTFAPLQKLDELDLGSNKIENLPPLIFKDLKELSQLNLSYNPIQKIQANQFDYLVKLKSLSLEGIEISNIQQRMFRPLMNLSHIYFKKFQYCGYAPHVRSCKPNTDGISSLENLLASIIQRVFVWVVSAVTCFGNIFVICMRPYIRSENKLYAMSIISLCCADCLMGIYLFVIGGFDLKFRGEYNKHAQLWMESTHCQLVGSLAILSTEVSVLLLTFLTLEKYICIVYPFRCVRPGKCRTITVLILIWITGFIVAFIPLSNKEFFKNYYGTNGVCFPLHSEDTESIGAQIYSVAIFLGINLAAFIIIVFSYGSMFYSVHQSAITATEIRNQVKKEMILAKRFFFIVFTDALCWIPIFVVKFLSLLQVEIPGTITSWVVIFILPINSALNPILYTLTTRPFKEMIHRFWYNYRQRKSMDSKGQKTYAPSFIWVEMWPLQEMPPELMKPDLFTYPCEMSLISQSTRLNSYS
Description: competition with 125I-RLN2 tracer on LGR7-expressing HEK293T cells.

B1: RLN2^A19-20 (ligand, not shown: small tags and cut ends)
chain 1: SWMEEVIKLCGRELVRAQIAICGMSTWSHHHHHH
chain 2: QLYSALANKCCHVGCTKRAAARFC
notes: It is read here as both residues changed to alanine
Take B1: the binding result was “binds”.

B2: RLN2^A22-23 (ligand, not shown: small tags and cut ends)
chain 1: SWMEEVIKLCGRELVRAQIAICGMSTWSHHHHHH
chain 2: QLYSALANKCCHVGCTKRSLAAAC
notes: as for B1
B2: the binding result is on record as “binds”.

For the origin of these results see US20130244938A1 (Stanford University, published 2013).
